In the odorant receptor screen of Mainland et al. (2015) one finds odorant receptor activation data, which are given here for 15 molecules.

What all share (assay): odorant receptor activation (CRE luciferase / Renilla) (fold of no-odor wells); higher = more activation
Common to all, as to settings: 100 µM

For assay [1], the system named is OR5H6 clone 1470.
For assay [2], the system named is OR5I1 clone 1146.
The subject of assay [3] is OR5J2 clone 1241.
Assay [4] relates to OR5K1 clone 1502.
In assay [5] the test system is OR5K2 clone 1068.
The test system of assay [6] is OR5K3 clone 1514.
Assay [7] concerns OR5K4 I206V clone 1729.
Assay [8] deals with OR5L1 clone 1204.
For assay [9], the system named is OR5L1 clone 1383.
For assay [10], the system named is OR5L1 clone 1720.

Values joined by “and” are separate entries in the source; they are usually repeats but may differ in a detail not shown here. Equal entries are not always repeated. The list shows a part of the results. Each value is one well over the wells without odorant, computed here; the data are noisy.

As to `CCCCCCCCOC(C)=O` [octyl acetate], the odorant receptor activation in assay [1] worked out at 0.746; in [2], 0.886; in assay [3], 0.852; in [4], 1.08; in [5], 0.985; in [6], 0.904. The odorant receptor activation in assay [7] amounted to 0.992; in [8] it was 1.07; in assay [9], 1.13; in assay [10] it was 0.676.
As for `CC(=O)OC(C)(C)C1CC=C(C)CC1` (configuration not stated) [terpinyl acetate], the odorant receptor activation was found to be 1.3 in [1]; 1.05 in assay [2]; 1.03 in assay [3]; 0.785 in [4]; 1.04 in assay [5]; 1.1 in [6]. The odorant receptor activation came out at 0.686 in [7], 1.31 in [8], 0.91 in assay [9] and 1.19 in assay [10].
Turning to `COc1cc(C)ccc1O` [2-methoxy-4-methylphenol], the odorant receptor activation in assay [1] was 0.872; in assay [2], 1.2; in assay [3] it was 0.967; in assay [4], 1.15; in [5] it was 3.65; in [6] it was 0.819. Further, the odorant receptor activation came out at 0.992 in assay [7], 0.959 in assay [8], 0.594 in assay [9] and 0.91 in [10].
For `C=CCc1ccc(OC)c(OC)c1` [eugenol methyl ether], the odorant receptor activation in [1] turned out to be 1.26; in assay [2], 1.49; in [3], 0.9; in [4] it was 1.86; in [5], 1.32; in assay [6], 1.5. Moreover, the odorant receptor activation in assay [7] stood at 0.868; in [8] it was 1.48; in [9] it was 1.91; in assay [10], 1.04.
On to `CC(=O)OCC=C(C)CCC=C(C)C` [geranyl acetate], for which the odorant receptor activation in assay [1] is 1.07 and 1.37; in assay [2] it was 0.838; in assay [3], 2.28; in assay [4], 0.9 and 1.38; in [5], 2.82; in assay [6], 0.987 and 1.34. The odorant receptor activation was 1.42 in assay [7], 1.29 in [8], 1.19 in assay [9] and 1.08 in assay [10].
On to `CCCCCCC=O` [heptaldehyde], for which the odorant receptor activation in assay [3] was 1.25; in assay [4], 0.792 and 0.768 and 1.09; in assay [5], 0.908 and 1.19; in assay [7] it was 0.898; in assay [9], 1.01 and 0.944; in [10], 0.767.
As for `CC(C)C(=O)O` [isobutyric acid], the odorant receptor activation is 0.766 and 1.04 in assay [1]; 1.18 in assay [2]; 1.05 in assay [3]; 0.828 and 1.01 in assay [4]; 0.633 in [5]; 0.707 and 0.755 in [6]. Moreover, the odorant receptor activation in [7] amounted to 1.19; in [8], 0.867; in [9], 0.831; in assay [10], 0.776.
As for `c1ccc(Oc2ccccc2)cc1` [diphenyl ether], the odorant receptor activation in assay [1] was 0.961; in assay [2], 1.14; in assay [3] it was 0.782; in [4], 1.2; in assay [5], 0.887; in [6], 1.12. Also, the odorant receptor activation in [7] came to 0.424; in assay [8] it was 0.879; in assay [9] it was 1.07; in [10] it was 0.517.
In the case of `COC(=O)c1ccccc1` [methyl benzoate], the odorant receptor activation was 0.613 and 1.09 in assay [1]; 0.754 in assay [2]; 0.829 and 1.24 in [4]; 0.97 in assay [5]; 0.696 and 0.711 in assay [6]; 1.22 in assay [8]. In [9], the odorant receptor activation was 0.758.
`CC(=O)c1ccccc1` [acetophenone]: the odorant receptor activation in [1] was 1.28 and 0.743; in [2], 1.31; in assay [4], 1.34 and 1.04; in [5] it was 0.705; in assay [6], 1.13 and 0.532; in assay [8], 1.18. Besides, the odorant receptor activation in [9] was determined as 0.898.
Consider `CC(=O)OC1CC2CCC1(C)C2(C)C` (configuration not stated) [isobornyl acetate], for which the odorant receptor activation was 0.727 and 1.1 in [1]; 1.17 in assay [2]; 0.804 in assay [3]; 0.983 and 1.02 in [4]; 0.975 in assay [5]; 0.984 and 1.17 in assay [6]. In addition, the odorant receptor activation in assay [7] was found to be 1.08; in assay [8] it was 0.906; in assay [9], 0.789; in assay [10] it was 0.688.
As for `C=C(C)C1CC=CCC1` (configuration not stated) [r-limonene], the odorant receptor activation in assay [1] is 1.23 and 0.764 and 1; in assay [2], 1.13 and 0.47; in assay [3] it was 1.06; in assay [4], 1.17 and 0.79 and 0.934; in [5], 0.917 and 1.34; in assay [6], 0.84 and 0.685 and 0.608. Besides, the odorant receptor activation is 1.68 in [7]; 1.14 and 0.546 in assay [8]; 1.28 and 0.835 in assay [9]; 1.19 in assay [10].
Consider `O=C1CCCCC1` [Cyclohexanone], for which the odorant receptor activation is 0.567 and 0.927 in assay [1]; 0.737 in assay [2]; 0.871 and 1.05 in [4]; 1.09 in assay [5]; 0.6 and 0.681 in assay [6]; 0.746 in [8]. The odorant receptor activation in assay [9] stood at 0.81.
As for `CCCCCCCC=CC=O` [2-decenal], the odorant receptor activation in [1] was 2.34; in [2] it was 1.25; in assay [3] it was 0.941; in [4] it was 1.43; in assay [5], 10.7; in [6] it was 1.42. Also, the odorant receptor activation worked out at 1.03 in assay [7], 0.736 in assay [8], 1.38 in assay [9] and 1.72 in assay [10].
As for `O=CCc1ccccc1` [phenyl acetaldehyde], the odorant receptor activation is 1.66 in assay [1]; 1.28 in assay [2]; 1.78 in assay [3]; 0.765 in assay [4]; 0.92 in assay [5]; 1.24 in assay [6]. Moreover, the odorant receptor activation came out at 3.02 in [7], 1.35 in assay [8], 1.73 in assay [9] and 1.48 in assay [10].
